Reference: patent US11446388B2, “Amanitin antibody conjugates” ([…] Research GmbH, priority 2016, dated 2022)
Some results were stated once for a whole list of compounds, not compound by compound.

Legend:
[1] = system: NCI-H929 subcutaneous xenograft; assay: NCI-H929 subcutaneous xenograft, single dose; assay type: in vivo, mouse; conditions: single treatment 4 mg/kg iv
Protocol: Once tumor volume reached 80 mm^3, mice (8 animals per group) were treated intravenously with single doses (2 or 4 mg/kg) of J22.9-ISY-D265C-30.2115 or J22.9-ISY-D265C-30.1699, or were treated with PBS as control.. Tumor volumes were monitored twice per week.
Antitumor activity of J22.9-ISY-D265C-30.2115 and J22.9-ISY-D265C-30.1699 was tested in a subcutaneous NCI-H929 (see Table 3 for details of cell line) mouse xenograft model.

MM.1S Luc xenograft = assay: Disseminating intravenous MM.1S Luc xenograft model, single dose; assay type: in vivo, mouse; conditions: single doses of 2 and 4 mg/kg
Protocol: (§1) When reaching a mean flux of 1.5×10^6-1×10^7 (10-14 days after implantation) 8-10 mice per group were treated with single doses (2 and 4 mg/kg) of J22.9-ISY-D265C-30.1699, J22.9-ISY-D265C-30.2115 or PBS as control. Luciferase activity was monitored by non-invasive bio-imaging twice weekly, 10 minutes after administration of luciferin (10 μl/g body weight). (B) Individual tumor growth curves for each animal are depicted. Individual Growth curves are shown for groups treated with 2 mg/kg (solid line) and 4 mg/kg (dashed line) of J22.9-ISY-D265C-30.2115.
as §1, with “doses (0.1, 0.3, 1” for “doses (2”, “and 2” for “and 4”, “of” for “of J22.9-ISY-D265C-30.1699,”, “depicted.” for “depicted. Individual”, “with 1” for “with 2”
The antitumor activity of J22.9-ISY-D265C-30.1699 and J22.9-ISY-D265C-30.2115 was further tested in a disseminating intravenous MM.1S Luc xenograft model at doses of 2 and 4 mg/kg. […]

Substance: J22.9-ISY-D265C-30.2115: Thiomab antibody J22.9-ISY-D265C conjugated to amatoxin-linker HDP 30.2115 via engineered cysteine 265, cleavable linker
- time mice stayed tumor free [1]: more than 100 days
- duration of complete tumor remission (MM.1S Luc xenograft): more than 100 days
